Source: PubChem BioAssay AID2685 (National Center for Advancing Translational Sciences (NCATS), 2010)
Among all 320,000 compounds or so, about 2,100 (0.66%) were called active. This list was built around the results that the source calls inconclusive (neither active nor inactive); the mix of calls is not that of the screen. Calls follow the shape of the dose curve; as a rule, active = well fitted inhibition curve with a large enough effect in the signal ratio, with a control signal flat (not every such curve was filed as active); inconclusive = small, poorly fitted or top-dose-only effect, or effect the other way, or a change in a side signal; inactive = flat fitted curve, though single readings scatter; the % refers to the signal ratio. Potencies of inconclusive entries are doubtful fits and often do not repeat.

Test: qHTS Assay for Lipid Storage Modulators in Drosophila S3 Cells
Settings: BODIPY lipid droplet fluorescence, 18-24 h, cells fed with added oleic acid; lipid storage change, negative = inhibition: at 46.1 µM (top of the series) unless noted
Procedure, shortened: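 Drosophila S3 cells got compounds at several concentrations plus oleic acid (400 uM solution). Laser-scanning cytometry with 488 nm excitation read lipid droplets at 500-530 nm and cells at 575-640 nm. Percent activity was relative to 20 uM Triacsin C.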
% is scaled to controls: 0 for no effect and ±100 for the full control effect; potency is read from the fitted curve at half-maximal effect.

Lipid storage change, negative = inhibition, inconclusive:
COc1cc(C)ccc1OCCOc1c(Cl)cc(Cl)cc1Cl -2%
CCOC(=O)c1cnn2c(C(F)(F)F)cc(-c3ccco3)nc12 62.3%
O=[N+]([O-])c1ccc(O)c(/C=N/Nc2ncnc3c2cnn3-c2ccccc2)c1 -18.6%
CCC(C)c1ccccc1N1CC(C(=O)N2CCN(S(=O)(=O)c3ccc(F)cc3)CC2)CC1=O (stereo not given)
CCCCn1c(N)c(N(CCOC)C(=O)c2cc(-c3ccc(F)cc3)nc3ccccc23)c(=O)[nH]c1=O 38%
O=C(Nc1cccc(C(=O)Nc2ccc(Br)cc2)c1)c1ccccc1 -100%
CCOC(=O)N1CCN(C(=O)c2cc3cc(F)ccc3[nH]2)CC1 21.3%
COc1ccc(/C=C(\C#N)C(=O)OCC(=O)Nc2ccc(-c3nc4ccc(C)cc4s3)cc2)cc1 42.1%
COc1ccc(S(=O)(=O)N2CCN(C3CCN(Cc4ccccc4)CC3)CC2)cc1 10.6%
O=C(COC(=O)c1ccc(S(=O)(=O)N2CCCC2)cc1)Nc1cccnc1Cl 7.05%
Cc1ccc(C(=O)Nc2nc(-c3cccnc3)cs2)o1 31.5%
c1ccc(N/N=C(\Cc2nc3ccccc3[nH]2)c2ccccc2)cc1 -14.1%
CCCc1cc(=O)oc2cc(C)cc(OC(C)C(=O)NCc3cccnc3)c12 (stereo not given) 40.9%

Potency, inconclusive:
Cc1cccc(-c2oc3ccc(-c4ccc5c(c4)OCO5)cc3c2/C=C/c2ccc(N)cc2)c1 7.31 µM [activator, partial curve]
COc1cc(OC)cc(C(=O)NC(C(=O)NCc2ccccn2)C(C)C)c1 (stereo not given) 23.1 µM [activator, single point]
Cc1ccc(NC(=O)NCCc2ccc(S(N)(=O)=O)cc2)cc1 14.6 µM [activator, single point]
CCN(CC(=O)Nc1c(F)cccc1F)C(=O)CCc1ccc(OC)cc1 0.326 µM [activator, partial curve]
CCN(CC)S(=O)(=O)c1ccc(Cl)c(C(=O)Nc2cc(C)nn2-c2ccccc2)c1 7.31 µM [falling, single point]
CN(C(=O)CCNC(=O)Cn1ccc2ccccc2c1=O)c1ccc(Br)cc1 25.9 µM [activator, single point]
O=S(=O)(NCCC1=CCCCC1)c1ccccc1Cl 0.116 µM [falling, full curve, poor fit]

Reprinted at random: two records from the list, in no set order.
Potency, inconclusive:
CCN(CC)S(=O)(=O)c1ccc(Cl)c(C(=O)Nc2cc(C)nn2-c2ccccc2)c1 7.31 µM [falling, single point]
CN(C(=O)CCNC(=O)Cn1ccc2ccccc2c1=O)c1ccc(Br)cc1 25.9 µM [activator, single point]
